{"source": "patent US10563263B2", "about": "“Genetic polymorphisms associated with statin response and cardiovascular diseases, methods of detection and uses thereof” (CELERA CORPORATION, priority 2010, dated 2020)", "system": "CHD", "assay": "Meta-analysis of CARE and WOSCOPS combined, synergy index, CHD endpoint", "assay_type": "in vivo, human", "excerpt": "Tables 4-5 provide meta-analyses of CARE and WOSCOPS combined (2nd section of each table) for two endpoints (CHD and CVD) and three genetic models (dominant, recessive, and additive), as well as logistic regression analyses of CARE (3rd section of each table) and WOSCOPS (4th section of each table) individually.\nTables 12 and 17 provide results of meta-analysis of the CARE and WOSCOPS sample sets combined by direct genotyping and by imputing genotypes.\n“P” indicates the p-value, and “P(R)” (or “P.R.”) indicates the p-value random effect. Both of these are p-values corresponding to a statistical test of whether the combined synergy index is equal to one but use different assumptions to derive the p-value. “P” is calculated using a fixed effects model, and “P(R)” is calculated using a random effects model.\n“OR” indicates the odds ratio (synergy index) calculated from a fixed effects model, and “OR(R)” (or “OR.R.”) indicates the odds ratio (synergy index) calculated from a random effects model.", "key": {"[1]": {"conditions": "rs2095586 allele A DOMINANT Imputed"}, "[2]": {"conditions": "rs2095606 allele A DOMINANT Imputed"}, "[3]": {"conditions": "rs2102374 allele A ADDITIVE Imputed"}, "[4]": {"conditions": "rs2102374 allele A DOMINANT Imputed"}, "[5]": {"conditions": "rs2108426 allele C DOMINANT Imputed"}, "[6]": {"conditions": "rs2110664 allele A DOMINANT Imputed"}, "[7]": {"conditions": "rs2132242 allele A ADDITIVE Imputed"}, "[8]": {"conditions": "rs2132242 allele A DOMINANT Imputed"}, "[9]": {"conditions": "rs2158958 allele A DOMINANT Imputed"}}, "note": "Further values from the same series stand in other lists.", "data": [{"smiles": "CC[C@H](C)C(=O)O[C@H]1C[C@H](O)C=C2C=C[C@H](C)[C@H](CC[C@@H](O)C[C@@H](O)CC(=O)O)[C@H]21", "note": "[Pravastatin, pravastatin]", "values": [{"measurement": "OR", "setting": "rs1582323 allele A DOMINANT Imputed, fixed effect", "result": 0.6171}, {"measurement": "OR(R)", "setting": "rs1582323 allele A DOMINANT Imputed, random effect", "result": 0.6171}, {"measurement": "OR", "setting": "rs1592485 allele C DOMINANT Imputed, fixed effect", "result": 0.6167}, {"measurement": "OR(R)", "setting": "rs1592485 allele C DOMINANT Imputed, random effect", "result": 0.6167}, {"measurement": "OR", "setting": "rs1600954 allele T ADDITIVE Imputed, fixed effect", "result": 1.4064}, {"measurement": "OR(R)", "setting": "rs1600954 allele T ADDITIVE Imputed, random effect", "result": 1.4064}, {"measurement": "OR", "setting": "rs1600954 allele T GENOTYPIC Imputed, fixed effect", "result": 1.9926}, {"measurement": "OR(R)", "setting": "rs1600954 allele T GENOTYPIC Imputed, random effect", "result": 1.9926}, {"measurement": "Meta-analysis OR", "setting": "rs1705244 allele G vs A (ref)", "result": 0.60}, {"measurement": "OR", "setting": "rs1705261 allele A RECESSIVE Imputed, fixed effect", "result": 1.7058}, {"measurement": "OR(R)", "setting": "rs1705261 allele A RECESSIVE Imputed, random effect", "result": 1.7058}, {"measurement": "OR", "setting": "rs1818885 allele G GENOTYPIC Imputed, fixed effect", "result": 2.1046}, {"measurement": "OR(R)", "setting": "rs1818885 allele G GENOTYPIC Imputed, random effect", "result": 2.1046}, {"measurement": "OR", "setting": "rs1832222 allele G DOMINANT Imputed, fixed effect", "result": 1.5562}, {"measurement": "OR(R)", "setting": "rs1832222 allele G DOMINANT Imputed, random effect", "result": 1.5562}, {"measurement": "Meta-analysis OR", "setting": "rs1861326 allele A vs G (ref)", "result": 0.64}, {"measurement": "OR", "setting": "rs1861327 allele G DOMINANT Imputed, fixed effect", "result": 0.6096}, {"measurement": "OR(R)", "setting": "rs1861327 allele G DOMINANT Imputed, random effect", "result": 0.6096}, {"measurement": "Meta-analysis OR", "setting": "rs1864924 allele G vs A (ref)", "result": 1.40}, {"measurement": "Meta-analysis OR", "setting": "rs1866386, A1 (non-ref) A, A2 (ref) G", "result": 0.74}, {"measurement": "OR", "setting": "rs1868581 allele G ADDITIVE Imputed, fixed effect", "result": 1.4042}, {"measurement": "OR(R)", "setting": "rs1868581 allele G ADDITIVE Imputed, random effect", "result": 1.4042}, {"measurement": "OR", "setting": "rs1868581 allele G GENOTYPIC Imputed, fixed effect", "result": 2.1147}, {"measurement": "OR(R)", "setting": "rs1868581 allele G GENOTYPIC Imputed, random effect", "result": 2.1147}, {"measurement": "OR", "setting": "rs1874313 allele A ADDITIVE Imputed, fixed effect", "result": 0.7177}, {"measurement": "OR(R)", "setting": "rs1874313 allele A ADDITIVE Imputed, random effect", "result": 0.7177}, {"measurement": "OR", "setting": "rs1874313 allele A DOMINANT Imputed, fixed effect", "result": 0.6096}, {"measurement": "OR(R)", "setting": "rs1874313 allele A DOMINANT Imputed, random effect", "result": 0.6096}, {"measurement": "OR", "setting": "rs1876409 allele C DOMINANT Imputed, fixed effect", "result": 0.6278}, {"measurement": "OR(R)", "setting": "rs1876409 allele C DOMINANT Imputed, random effect", "result": 0.6278}, {"measurement": "Meta-analysis OR", "setting": "rs1877986 allele A vs G (ref)", "result": 0.62}, {"measurement": "OR", "setting": "rs1913201 allele G ADDITIVE Imputed, fixed effect", "result": 0.7392}, {"measurement": "OR(R)", "setting": "rs1913201 allele G ADDITIVE Imputed, random effect", "result": 0.7392}, {"measurement": "OR", "setting": "rs1913201 allele G DOMINANT Imputed, fixed effect", "result": 0.6285}, {"measurement": "OR(R)", "setting": "rs1913201 allele G DOMINANT Imputed, random effect", "result": 0.6285}, {"measurement": "OR", "setting": "rs1913201 allele G GENOTYPIC Imputed, fixed effect", "result": 0.574}, {"measurement": "OR(R)", "setting": "rs1913201 allele G GENOTYPIC Imputed, random effect", "result": 0.574}, {"measurement": "OR", "setting": "rs1916922 allele T GENOTYPIC Imputed, fixed effect", "result": 2.1096}, {"measurement": "OR(R)", "setting": "rs1916922 allele T GENOTYPIC Imputed, random effect", "result": 2.1096}, {"measurement": "OR", "setting": "rs1936871 allele G DOMINANT Genotyped, fixed effect", "result": 0.6214}, {"measurement": "OR(R)", "setting": "rs1936871 allele G DOMINANT Genotyped, random effect", "result": 0.6214}, {"measurement": "OR", "setting": "rs1961157 allele T RECESSIVE Imputed, fixed effect", "result": 0.5553}, {"measurement": "OR(R)", "setting": "rs1961157 allele T RECESSIVE Imputed, random effect", "result": 0.5553}, {"measurement": "OR", "setting": "rs1987179 allele T ADDITIVE Imputed, fixed effect", "result": 0.7236}, {"measurement": "OR(R)", "setting": "rs1987179 allele T ADDITIVE Imputed, random effect", "result": 0.7236}, {"measurement": "OR", "setting": "rs1987179 allele T DOMINANT Imputed, fixed effect", "result": 0.6536}, {"measurement": "OR(R)", "setting": "rs1987179 allele T DOMINANT Imputed, random effect", "result": 0.6536}, {"measurement": "OR", "setting": "rs1990023 allele T DOMINANT Imputed, fixed effect", "result": 0.6661}, {"measurement": "OR(R)", "setting": "rs1990023 allele T DOMINANT Imputed, random effect", "result": 0.6661}, {"measurement": "OR", "setting": "rs1995025 allele C DOMINANT Imputed, fixed effect", "result": 1.5088}, {"measurement": "OR(R)", "setting": "rs1995025 allele C DOMINANT Imputed, random effect", "result": 1.5088}, {"measurement": "OR", "setting": "rs2016194 allele G DOMINANT Imputed, fixed effect", "result": 0.6718}, {"measurement": "OR(R)", "setting": "rs2016194 allele G DOMINANT Imputed, random effect", "result": 0.6718}, {"measurement": "OR", "setting": "rs2023651 allele T ADDITIVE Imputed, fixed effect", "result": 0.6532}, {"measurement": "OR(R)", "setting": "rs2023651 allele T ADDITIVE Imputed, random effect", "result": 0.6532}, {"measurement": "OR", "setting": "rs2024902 allele A ADDITIVE Imputed, fixed effect", "result": 1.9871}, {"measurement": "OR(R)", "setting": "rs2024902 allele A ADDITIVE Imputed, random effect", "result": 1.9871}, {"measurement": "OR", "setting": "rs2024902 allele A DOMINANT Imputed, fixed effect", "result": 2.0957}, {"measurement": "OR(R)", "setting": "rs2024902 allele A DOMINANT Imputed, random effect", "result": 2.0957}, {"measurement": "OR", "setting": "rs2025107 allele A DOMINANT Imputed, fixed effect", "result": 1.9576}, {"measurement": "OR(R)", "setting": "rs2025107 allele A DOMINANT Imputed, random effect", "result": 1.9576}, {"measurement": "OR", "setting": "rs2025108 allele T DOMINANT Imputed, fixed effect", "result": 1.9168}, {"measurement": "OR(R)", "setting": "rs2025108 allele T DOMINANT Imputed, random effect", "result": 1.9168}, {"measurement": "OR", "setting": "rs2031987 allele T GENOTYPIC Imputed, fixed effect", "result": 2.2431}, {"measurement": "OR(R)", "setting": "rs2031987 allele T GENOTYPIC Imputed, random effect", "result": 2.2431}, {"measurement": "OR", "setting": "rs2052428 allele C DOMINANT Imputed, fixed effect", "result": 0.6109}, {"measurement": "OR(R)", "setting": "rs2052428 allele C DOMINANT Imputed, random effect", "result": 0.6109}, {"measurement": "OR", "setting": "rs2053230 allele C ADDITIVE Imputed, fixed effect", "result": 0.5491}, {"measurement": "OR(R)", "setting": "rs2053230 allele C ADDITIVE Imputed, random effect", "result": 0.5491}, {"measurement": "OR", "setting": "rs2062448 allele T DOMINANT Imputed, fixed effect", "result": 0.5424}, {"measurement": "OR(R)", "setting": "rs2062448 allele T DOMINANT Imputed, random effect", "result": 0.5424}, {"measurement": "OR", "setting": "rs2063420 allele C RECESSIVE Imputed, fixed effect", "result": 1.8009}, {"measurement": "OR(R)", "setting": "rs2063420 allele C RECESSIVE Imputed, random effect", "result": 1.8009}, {"measurement": "OR", "setting": "rs2063591 allele C ADDITIVE Imputed, fixed effect", "result": 0.7622}, {"measurement": "OR(R)", "setting": "rs2063591 allele C ADDITIVE Imputed, random effect", "result": 0.7622}, {"measurement": "OR", "setting": "rs2063591 allele C DOMINANT Imputed, fixed effect", "result": 0.619}, {"measurement": "OR(R)", "setting": "rs2063591 allele C DOMINANT Imputed, random effect", "result": 0.619}, {"measurement": "Meta-analysis OR", "setting": "rs2069542 allele A vs G (ref)", "result": 1.62}, {"measurement": "OR", "setting": "[1]", "result": 1.582}, {"measurement": "OR(R)", "setting": "[1]", "result": 1.582}, {"measurement": "OR", "setting": "[2]", "result": 0.5812}, {"measurement": "OR(R)", "setting": "[2]", "result": 0.5812}, {"measurement": "OR", "setting": "[3]", "result": 0.6664}, {"measurement": "OR(R)", "setting": "[3]", "result": 0.6664}, {"measurement": "OR", "setting": "[4]", "result": 0.6016}, {"measurement": "OR(R)", "setting": "[4]", "result": 0.6016}, {"measurement": "OR", "setting": "[5]", "result": 0.6718}, {"measurement": "OR(R)", "setting": "[5]", "result": 0.6718}, {"measurement": "OR", "setting": "[6]", "result": 1.5536}, {"measurement": "OR(R)", "setting": "[6]", "result": 1.5536}, {"measurement": "OR", "setting": "[7]", "result": 0.7156}, {"measurement": "OR(R)", "setting": "[7]", "result": 0.7156}, {"measurement": "OR", "setting": "[8]", "result": 0.6098}, {"measurement": "OR(R)", "setting": "[8]", "result": 0.6098}, {"measurement": "Meta-analysis OR", "setting": "rs2157673 allele G vs A (ref)", "result": 1.50}, {"measurement": "OR", "setting": "[9]", "result": 0.6712}, {"measurement": "OR(R)", "setting": "[9]", "result": 0.6712}, {"measurement": "OR", "setting": "rs2158961 allele G DOMINANT Imputed", "result": 0.6715}]}]}
